{"source": "PubChem BioAssay AID1259306 – Sanger Institute, 2017", "aim": "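Find kinases whose loss reduces colorectal cancer cell viability or aids targeted drugs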 (primary screen)", "cells": "human SNU-C5 colorectal cancer cells", "reagents": "siRNA pool against human genes", "conditions": "DMSO vehicle alone, or one anchor drug: BYL719 at 1 µM, cetuximab at 5 µg/ml or trametinib at 10 nM, given 24 h into the assay", "read-out": "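Viability versus non-targeting pool averaged across replicates, given as fraction and robust z-score, and synergy scores for BYL719, cetuximab or trametinib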", "reading the numbers": "robust z-score, knock-down alone and viability, knock-down alone: higher = more viable cells", "call rule": "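Essential if knock-down without drug gives a robust z-score under -3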", "meaning of the calls": "active = essential (knock-down alone); inactive = no change alone", "note": "This is one part, drawn at random, of 794 reagents tested. 11 of them (1.4%) were called active. 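Calls reflect knock-down alone; synergy scores play no part, so knock-downs synergising with a drug can be called no change.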 A number with no mark means an inactive call. Viability is capped at 1. Not all columns of the deposit are shown. Not given: the amount of reagent, the time to read-out."}
{"gene": "GNAS", "robust z-score, knock-down alone": 0.189, "viability, knock-down alone": 0.89}
{"gene": "CAMK4", "robust z-score, knock-down alone": -0.157, "viability, knock-down alone": 0.842}
{"gene": "STK17B", "robust z-score, knock-down alone": 0.989, "viability, knock-down alone": 1}
{"gene": "IP6K1", "robust z-score, knock-down alone": 0.706, "viability, knock-down alone": 0.961}
{"gene": "CHKA", "robust z-score, knock-down alone": -0.561, "viability, knock-down alone": 0.787}
{"gene": "NUP98", "robust z-score, knock-down alone": -1.56, "viability, knock-down alone": 0.649}
{"gene": "RIPK4", "robust z-score, knock-down alone": 0.989, "viability, knock-down alone": 1}
{"gene": "CDKN1C", "robust z-score, knock-down alone": -0.111, "viability, knock-down alone": 0.848}
{"gene": "RIOK3", "robust z-score, knock-down alone": 0.231, "viability, knock-down alone": 0.896}
{"gene": "MPP2", "robust z-score, knock-down alone": -0.477, "viability, knock-down alone": 0.798}
{"gene": "PANK1", "robust z-score, knock-down alone": 0.756, "viability, knock-down alone": 0.968}
{"gene": "GRK7", "robust z-score, knock-down alone": -0.801, "viability, knock-down alone": 0.753}
{"gene": "TRIO", "robust z-score, knock-down alone": -0.407, "viability, knock-down alone": 0.808}
{"gene": "BRSK1", "robust z-score, knock-down alone": 0.788, "viability, knock-down alone": 0.972}
{"gene": "MAPK14", "robust z-score, knock-down alone": -0.402, "viability, knock-down alone": 0.808}
{"gene": "NLK", "robust z-score, knock-down alone": -0.389, "viability, knock-down alone": 0.81}
{"gene": "LRRK2", "robust z-score, knock-down alone": 0.536, "viability, knock-down alone": 0.938}
{"gene": "DCLK3", "robust z-score, knock-down alone": -0.323, "viability, knock-down alone": 0.819}
{"gene": "HK2", "robust z-score, knock-down alone": 0.913, "viability, knock-down alone": 0.989}
{"gene": "SPHK2", "robust z-score, knock-down alone": 0.989, "viability, knock-down alone": 1}
{"gene": "NME5", "robust z-score, knock-down alone": 0.137, "viability, knock-down alone": 0.883}
{"gene": "WNK1", "robust z-score, knock-down alone": 0.283, "viability, knock-down alone": 0.903}
{"gene": "KCNH2", "robust z-score, knock-down alone": 0.477, "viability, knock-down alone": 0.929}
{"gene": "LATS1", "robust z-score, knock-down alone": -0.315, "viability, knock-down alone": 0.82}
{"gene": "CAMKK2", "robust z-score, knock-down alone": -0.871, "viability, knock-down alone": 0.744}
{"gene": "CDK5", "robust z-score, knock-down alone": 0.43, "viability, knock-down alone": 0.923}
{"gene": "NEK3", "robust z-score, knock-down alone": -1.03, "viability, knock-down alone": 0.721}
{"gene": "PRKAR1B", "robust z-score, knock-down alone": -0.523, "viability, knock-down alone": 0.792}

Not a retest: an excerpt of the list.
{"gene": "NEK3", "robust z-score, knock-down alone": -1.03, "viability, knock-down alone": 0.721}
{"gene": "PRKAR1B", "robust z-score, knock-down alone": -0.523, "viability, knock-down alone": 0.792}
